Reference: publication PMC12373852
Results are given in words; binding and its absence hold for the method and conditions named. For some assays here: In cells and extracts the contact can be indirect. Some results given as binding are weak or reduced against the parent protein; the word gives no strength. Sequences can lack the tags named with a protein.

Chains of the proteins cited; added tags and fusions are not shown.
UniProt P54132: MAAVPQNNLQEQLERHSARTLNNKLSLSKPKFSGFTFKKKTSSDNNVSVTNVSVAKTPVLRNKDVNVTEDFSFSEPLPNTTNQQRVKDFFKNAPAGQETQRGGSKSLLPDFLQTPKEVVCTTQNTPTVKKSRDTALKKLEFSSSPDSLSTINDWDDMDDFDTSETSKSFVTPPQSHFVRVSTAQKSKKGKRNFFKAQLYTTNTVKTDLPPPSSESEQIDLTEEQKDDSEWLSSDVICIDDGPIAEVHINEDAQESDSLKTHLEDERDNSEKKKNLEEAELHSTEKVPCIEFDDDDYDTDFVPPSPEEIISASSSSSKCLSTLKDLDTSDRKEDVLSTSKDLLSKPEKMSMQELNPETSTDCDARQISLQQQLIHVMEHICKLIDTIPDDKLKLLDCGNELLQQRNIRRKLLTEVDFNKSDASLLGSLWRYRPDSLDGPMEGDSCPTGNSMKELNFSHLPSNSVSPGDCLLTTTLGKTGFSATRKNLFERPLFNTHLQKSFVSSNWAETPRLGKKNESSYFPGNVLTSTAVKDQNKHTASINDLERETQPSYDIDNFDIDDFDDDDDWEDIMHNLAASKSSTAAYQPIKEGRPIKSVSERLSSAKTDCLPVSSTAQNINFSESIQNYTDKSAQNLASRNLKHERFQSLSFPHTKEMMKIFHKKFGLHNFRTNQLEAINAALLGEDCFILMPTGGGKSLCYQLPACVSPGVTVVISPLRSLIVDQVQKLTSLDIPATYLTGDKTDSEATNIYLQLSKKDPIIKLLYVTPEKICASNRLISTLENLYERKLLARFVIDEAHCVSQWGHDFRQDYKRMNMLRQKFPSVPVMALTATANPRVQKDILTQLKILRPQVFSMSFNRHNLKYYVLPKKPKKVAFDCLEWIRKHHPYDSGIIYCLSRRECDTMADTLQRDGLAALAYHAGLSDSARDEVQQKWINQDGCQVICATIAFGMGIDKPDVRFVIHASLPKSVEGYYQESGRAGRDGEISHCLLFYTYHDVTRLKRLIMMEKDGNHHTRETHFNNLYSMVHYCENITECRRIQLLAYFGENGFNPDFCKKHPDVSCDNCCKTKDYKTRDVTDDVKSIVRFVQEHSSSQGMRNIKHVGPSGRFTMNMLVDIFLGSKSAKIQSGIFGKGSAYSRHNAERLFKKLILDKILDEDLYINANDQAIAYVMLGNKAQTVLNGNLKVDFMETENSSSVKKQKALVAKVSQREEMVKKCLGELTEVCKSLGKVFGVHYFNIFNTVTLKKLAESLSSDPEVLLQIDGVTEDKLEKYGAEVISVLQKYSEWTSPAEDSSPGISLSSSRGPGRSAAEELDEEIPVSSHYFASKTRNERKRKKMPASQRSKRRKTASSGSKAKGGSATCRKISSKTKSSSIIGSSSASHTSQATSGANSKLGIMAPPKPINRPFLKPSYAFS

T1: PICH-mAID-mClover3 (endogenously tagged PLK1-interacting checkpoint helicase) (human (endogenous in RPE1)) (UniProt Q2NKX8)
T1 sequence: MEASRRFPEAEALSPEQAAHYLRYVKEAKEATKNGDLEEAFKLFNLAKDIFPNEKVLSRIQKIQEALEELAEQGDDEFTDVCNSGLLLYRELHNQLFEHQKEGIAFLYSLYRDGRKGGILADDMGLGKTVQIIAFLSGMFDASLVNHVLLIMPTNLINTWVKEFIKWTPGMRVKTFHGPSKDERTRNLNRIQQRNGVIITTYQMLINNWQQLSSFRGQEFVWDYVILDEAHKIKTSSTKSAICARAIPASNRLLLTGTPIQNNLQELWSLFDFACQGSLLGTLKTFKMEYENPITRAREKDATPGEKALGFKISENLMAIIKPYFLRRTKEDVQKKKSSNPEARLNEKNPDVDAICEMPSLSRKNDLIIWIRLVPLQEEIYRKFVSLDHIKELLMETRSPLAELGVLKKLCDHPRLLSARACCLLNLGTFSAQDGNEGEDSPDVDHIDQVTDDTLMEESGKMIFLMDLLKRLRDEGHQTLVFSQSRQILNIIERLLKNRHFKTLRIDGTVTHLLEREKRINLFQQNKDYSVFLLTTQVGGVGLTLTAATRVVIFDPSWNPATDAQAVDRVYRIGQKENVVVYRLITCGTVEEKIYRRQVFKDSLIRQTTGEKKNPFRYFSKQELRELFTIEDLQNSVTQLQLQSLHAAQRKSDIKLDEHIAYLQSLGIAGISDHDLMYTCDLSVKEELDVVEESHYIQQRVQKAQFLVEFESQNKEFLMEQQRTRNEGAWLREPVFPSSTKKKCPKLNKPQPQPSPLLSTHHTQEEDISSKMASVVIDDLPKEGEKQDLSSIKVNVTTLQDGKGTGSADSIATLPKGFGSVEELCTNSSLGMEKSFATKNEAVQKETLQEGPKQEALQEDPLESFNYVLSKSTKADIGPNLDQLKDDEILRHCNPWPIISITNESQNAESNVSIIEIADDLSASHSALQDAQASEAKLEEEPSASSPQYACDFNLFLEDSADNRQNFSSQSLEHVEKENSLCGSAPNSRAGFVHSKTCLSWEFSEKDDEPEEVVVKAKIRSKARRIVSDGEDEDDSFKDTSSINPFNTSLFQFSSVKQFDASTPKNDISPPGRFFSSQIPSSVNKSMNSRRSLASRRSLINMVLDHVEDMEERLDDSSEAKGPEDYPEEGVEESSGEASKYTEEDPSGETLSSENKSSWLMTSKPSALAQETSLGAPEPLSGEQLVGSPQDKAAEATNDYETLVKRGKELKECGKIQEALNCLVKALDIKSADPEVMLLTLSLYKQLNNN

T2: CENPB-mCherry-RMI1 (UniProt Q9H9A7)
T2 sequence: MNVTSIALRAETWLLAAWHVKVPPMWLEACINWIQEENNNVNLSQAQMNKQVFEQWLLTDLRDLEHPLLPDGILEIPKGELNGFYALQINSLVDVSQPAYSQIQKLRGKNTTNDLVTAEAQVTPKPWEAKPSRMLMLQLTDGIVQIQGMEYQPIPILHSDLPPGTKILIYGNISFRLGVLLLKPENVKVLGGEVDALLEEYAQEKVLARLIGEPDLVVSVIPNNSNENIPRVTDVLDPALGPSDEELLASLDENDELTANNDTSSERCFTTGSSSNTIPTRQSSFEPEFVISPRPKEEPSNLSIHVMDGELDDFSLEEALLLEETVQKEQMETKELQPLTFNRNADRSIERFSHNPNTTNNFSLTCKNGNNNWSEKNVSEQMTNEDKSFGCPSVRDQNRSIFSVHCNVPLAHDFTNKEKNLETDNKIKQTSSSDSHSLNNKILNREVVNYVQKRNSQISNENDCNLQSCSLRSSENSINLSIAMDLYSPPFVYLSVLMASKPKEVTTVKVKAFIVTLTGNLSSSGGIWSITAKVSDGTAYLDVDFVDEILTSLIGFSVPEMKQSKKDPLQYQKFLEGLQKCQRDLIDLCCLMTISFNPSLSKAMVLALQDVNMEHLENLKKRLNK


Experiments:
[1] = target: T1, PICH-mAID-mClover3 (endogenously tagged PLK1-interacting checkpoint helicase) (human (endogenous in RPE1)); assay: co-IP; nocodazole/MG132-arrested RPE1 PICH-mAID-mClover3 cells with or without PLK1i (BI2536, 100 nM, last 1 hr); lysis buffer B with benzonase; anti-BLM with Protein A/G beads or GFP-Trap for PICH; washes 150 mM NaCl
CENPB-mCherry-RMI1 = target: T2, CENPB-mCherry-RMI1; assay: tethering to centromeres by CENPB fusion and recruitment of the partner seen by microscopy; time-lapse live-cell imaging of EGFP-TOP3A HeLa cells expressing CENPB-mCherry fusions, late G2 to the next G1

binding [1]	binding (CENPB-mCherry-RMI1)	Molecule
binds		Bloom syndrome DNA helicase BLM, endogenous (from UniProt P54132 1-1417)
	binds	EGFP-TOP3A (protein, UniProt Q13472 1-1001) MIFPVARYALRWLRRPEDRAFSRAAMEMALRGVRKVLCVAEKNDAAKGIADLLSNGRMRRREGLSKFNKIYEFDYHLYGQNVTMVMTSVSGHLLAHDFQMQFRKWQSCNPLVLFEAEIEKYCPENFVDIKKTLERETRQCQALVIWTDCDREGENIGFEIIHVCKAVKPNLQVLRARFSEITPHAVRTACENLTEPDQRVSDAVDVRQELDLRIGAAFTRFQTLRLQRIFPEVLAEQLISYGSCQFPTLGFVVERFKAIQAFVPEIFHRIKVTHDHKDGIVEFNWKRHRLFNHTACLVLYQLCVEDPMATVVEVRSKPKSKWRPQALDTVELEKLASRKLRINAKETMRIAEKLYTQGYISYPRTETNIFPRDLNLTVLVEQQTPDPRWGAFAQSILERGGPTPRNGNKSDQAHPPIHPTKYTNNLQGDEQRLYEFIVRHFLACCSQDAQGQETTVEIDIAQERFVAHGLMILARNYLDVYPYDHWSDKILPVYEQGSHFQPSTVEMVDGETSPPKLLTEADLIALMEKHGIGTDATHAEHIETIKARMYVGLTPDKRFLPGHLGMGLVEGYDSMGYEMSKPDLRAELEADLKLICDGKKDKFVVLRQQVQKYKQVFIEAVAKAKKLDEALAQYFGNGTELAQQEDIYPAMPEPIRKCPQCNKDMVLKTKKNGGFYLSCMGFPECRSAVWLPDSVLEASRDSSVCPVCQPHPVYRLKLKFKRGSLPPTMPLEFVCCIGGCDDTLREILDLRFSGGPPRASQPSGRLQANQSLNRMDNSQHPQPADSRQTGSSKALAQTLPPPTAAGESNSVTCNCGQEAVLLTVRKEGPNRGRQFFKCNGGSCNFFLWADSPNPGAGGPPALAYRPLGASLGCPPGPGIHLGGFGNPGDGSGSGTSCLCSQPSVTRTVQKDGPNKGRQFHTCAKPREQQCGFFQWVDENTAPGTSGAPSWTGDRGRTLESEARSKRPRASSSDMGSTAKKPRKCSLCHQPGHTRPFCPQNR
